PubChem BioAssay AID720504 (National Center for Advancing Translational Sciences (NCATS), 2013)
The campaign covered roughly 360,000 compounds. About 10,000 (2.8%) were called active. Inconclusive results, whose numbers are uncertain, are shown with a selection of clear calls. The call rests on the fitted dose curve; in most records, active means well fitted inhibition curve with a large enough effect; inconclusive means small, poorly fitted or top-dose-only effect; inactive means flat fitted curve, though single readings scatter. Where the call is inconclusive, the potency comes from a doubtful curve fit.

The chains behind the UniProt entries cited, without tags or fusion partners.
UniProt P53350, whole entry, looked up: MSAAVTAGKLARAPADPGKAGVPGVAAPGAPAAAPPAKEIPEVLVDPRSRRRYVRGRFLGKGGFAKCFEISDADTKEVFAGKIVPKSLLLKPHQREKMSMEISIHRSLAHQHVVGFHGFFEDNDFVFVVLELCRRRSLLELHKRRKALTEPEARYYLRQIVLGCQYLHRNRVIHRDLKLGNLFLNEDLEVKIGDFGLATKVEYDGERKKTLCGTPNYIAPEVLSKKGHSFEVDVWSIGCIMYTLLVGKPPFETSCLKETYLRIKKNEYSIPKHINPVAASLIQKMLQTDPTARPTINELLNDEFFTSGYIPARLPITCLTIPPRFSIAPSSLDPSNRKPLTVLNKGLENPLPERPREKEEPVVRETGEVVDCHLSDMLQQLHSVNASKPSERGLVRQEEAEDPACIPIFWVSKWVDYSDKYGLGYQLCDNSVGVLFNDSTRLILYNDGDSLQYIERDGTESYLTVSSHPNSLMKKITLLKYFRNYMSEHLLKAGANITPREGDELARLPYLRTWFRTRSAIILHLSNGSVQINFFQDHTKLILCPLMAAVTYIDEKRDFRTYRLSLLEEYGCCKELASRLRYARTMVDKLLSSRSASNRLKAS

Target: Serine/threonine-protein kinase PLK1 (Homo sapiens) (UniProt P53350)
Assay: qHTS for Inhibitors of PLK1-PDB (polo-like kinase 1 - polo-box domain): Primary Screen; further: nearly all actives have a fitted effect of over 65% in size; on max response, negative = inhibition: series mostly up to about 57 µM
Conditions: Plk1 PBD binding of FITC phosphopeptide, fluorescence polarization
On the % scale 0 is the no-effect control and ±100 the full control effect; potency means the concentration at half of the fitted maximal effect.

Compound | Potency | max response, negative = inhibition
S=c1[nH]nc(C(c2ccccc2)C2CCCCC2)o1 (configuration not stated) | inconclusive: 37.7 µM [inhibitor, single point] | –
N#C/C(=C/c1ccc(N2CCCCCC2)o1)c1ccc(F)cc1 | inconclusive: 33.6 µM [inhibitor, partial curve] | –
Cc1ccc(S(=O)(=O)CCC(=O)Oc2ccc3c(C)cc(=O)oc3c2)cc1 | inconclusive: 26.7 µM [inhibitor, partial curve] | –
CN(CC(=O)Nc1ccc(F)cc1)C(=O)c1cc(-c2ccco2)nc2ccccc12 | inconclusive: 26.7 µM [inhibitor, single point] | –
Cc1cc(O)c2c(c1)C(=O)[C@@]13Oc4c5c(c(O)c6c(O)cc(C)cc46)C(=O)C[C@H](O)[C@H]5[C@@H]1[C@@H](O)CC(=O)C3=C2O | active: 3.36 µM | –
Cc1nnc(N2CCN(c3ccccc3)CC2)[nH]c1=O | active: 2.99 µM | –
CCC(C)(C)NC(=S)Nc1ccc(-c2nc3ccc(C)cc3s2)cc1 | inconclusive: 33.6 µM [inhibitor, single point] | –
COC(=O)Cn1cc(/C=C/[N+](=O)[O-])c2ccccc21 | inconclusive: 21.2 µM [inhibitor, single point] | –
COc1cccc(NC(=O)c2cn(C)c(=O)c3cc(OC)c(OC)cc23)c1 | active: 2.99 µM | –
O=C(CSc1nnc(C2CC2)n1Cc1ccccc1)c1cc2ccccc2o1 | inconclusive: 10.6 µM [inhibitor, partial curve] | –
CCCC(O)(CCC)C(=O)NN1CCCCC1 | active: 18.9 µM | –
Cc1ccc(C(=O)OCn2ncc(Cl)c(Cl)c2=O)cc1 | inconclusive: 26.7 µM [inhibitor, partial curve] | –
Cc1csc(N/N=C/c2ccc(O)c([N+](=O)[O-])c2)n1 | inconclusive: 26.7 µM [inhibitor, partial curve] | –
C=C(CN(C)C)C(=O)c1cc(OC)c(OC)cc1OC | active: 16.8 µM | –
C=CCOc1cccc(NC(=O)c2ccccc2SC)c1 | active: 26.7 µM | –
O=C1C=CC(=Nc2ccc3c(c2)Cc2cc(F)ccc2-3)O1 | inconclusive: 18.9 µM [inhibitor, partial curve] | –
COc1ccc(-c2[nH]nc3c2C(c2ccoc2)C(C#N)=C(N)O3)cc1 (configuration not stated) | inconclusive: 26.7 µM [inhibitor, single point] | –
Cc1ccc(/C=C2\S/C(=N/S(=O)(=O)c3cccs3)NC2=O)cc1 | active: 18.9 µM | –
Cc1ccc(S(=O)(=O)NN=CC=CC=NNS(=O)(=O)c2ccc(C)cc2)cc1 | inconclusive: 26.7 µM [inhibitor, single point] | –
Cc1[nH]n2c(=O)cc(Cc3ccccc3)nc2c1C#N | inconclusive: 26.7 µM [inhibitor, single point] | –
O=C1CCc2cc(S(=O)(=O)N3CCC(C(=O)Nc4nccs4)CC3)ccc2N1 | inconclusive: 23.8 µM [inhibitor, single point] | –
C=CCn1c(-c2oc3nc(-c4ccccc4)cc(-c4ccccc4)c3c2N)n[nH]c1=S | – | inactive: 10.1%
CCc1c(C)nc2ncnn2c1Nc1ccc(C(C)=O)cc1 | – | inconclusive: -31% [inhibitor]
Cc1csc(NC(=O)c2ccc(S(=O)(=O)N(C)c3ccccc3)cc2)n1 | – | inactive: -2.38%

Compound | Potency | max response, negative = inhibition
Cc1ccc(-c2cnc(N)n2C)cc1C | inconclusive: 29.9 µM [inhibitor, single point] | –
Cc1cc(-n2c(C)cc(C(=S)N3CCOCC3)c2C)ccc1Br | inconclusive: 26.7 µM [inhibitor, partial curve] | –
NCCCC[C@@H]1NC(=O)c2cc([N+](=O)[O-])cc(I)c2SC[C@@H](C(N)=O)NC(=O)[C@H](Cc2ccc(O)cc2)NC1=O | inconclusive: 75.2 µM [inhibitor, partial curve] | –
CCc1ccccc1NC(=S)NC1CC2CCC(C1)N2Cc1ccco1 (configuration not stated) | inconclusive: 23.8 µM [inhibitor, single point] | –
COc1ccc(CCC(=O)NNC(=O)c2ccc(OC)cc2)cc1 | – | inactive: -6.24%
Cc1nc2ccc(N)cc2s1 | inconclusive: 18.9 µM [inhibitor, partial curve] | –
Cc1ccccc1C(=O)N1CCC2CC1c1cc(Cl)ccc12 (configuration not stated) | – | inactive: -5.69%
O=C(NCc1cccs1)C1CCN(c2nc3ccccc3o2)CC1 | inconclusive: 26.7 µM [inhibitor, single point] | –
O=C(CSc1ccc2nnc(-c3ccccn3)n2n1)N1CCN(c2ccccc2)CC1 | – | inconclusive: -32% [inhibitor]
COC(=O)C1CSc2[nH]c(=O)sc2C1c1ccc(OC)c(OC)c1 (configuration not stated) | – | inconclusive: -30.8% [inhibitor]
Cc1ccc(S(=O)(=O)N(Cc2n[nH]c(=S)n2-c2ccccc2)c2cccc(Cl)c2)cc1 | – | inactive: -0.422%
CCn1cc2c(c1-c1cccc(C)c1)c(=O)n(C)c(=O)n2C | inconclusive: 15 µM [inhibitor, partial curve] | –
Clc1ccc(-c2nc3ccc(Br)cn3c2Cc2cccc(Cl)c2)cc1 | inconclusive: 33.6 µM [inhibitor, single point] | –
Cc1cc(C)cc(NC(=S)Nc2cccc3cnccc23)c1 | inconclusive: 33.6 µM [inhibitor, single point] | –
CC1(c2ccc3noc(-c4ccc(F)cc4)c3c2)OCCO1 | inconclusive: 21.2 µM [inhibitor, single point] | –
O=[N+]([O-])c1cc(/C=N\O)ccc1Oc1ccc(F)cc1 | inconclusive: 33.6 µM [inhibitor, partial curve] | –
CC(=O)Nc1sc(N/N=C\c2ccccc2)nc1-c1cccs1 | inconclusive: 23.8 µM [inhibitor, single point] | –
CC(C)c1cc2c(c(O)c1O)[C@@]13CCCC(C)(C)C1CC2OC3=O (some centres not stated) | active: 6.7 µM | –
COc1ccc(CCNC(=O)CCS(=O)(=O)c2ccc3c(c2)NC(=O)CS3)cc1OC | active: 29.9 µM | –
COc1ccc2c(c1)OC[C@H]1[C@H]2N2C(=O)CN(Cc3ccc(C)cc3)C(=O)[C@@]2(C)[C@H]1c1ccccc1 | – | inactive: 5.03%
COc1ccc(C(=O)N/C(=C\c2cn(S(=O)(=O)N(C)C)c3ccccc23)C(=O)N2CCN(C)CC2)cc1 | inconclusive: 26.7 µM [inhibitor, partial curve] | –
COc1ccccc1N1CCN(C(CNS(=O)(=O)c2cccs2)c2cccnc2)CC1 (configuration not stated) | – | inactive: -5.81%
O=C(c1ccccc1)c1ccc(Cn2cc(CCCO)nn2)cc1 | – | inactive: 1.25%
O=c1[nH]cc(F)c(=O)n1C1OC(CO)C(O)C1O (configuration not stated) | – | inconclusive: -32.6% [inhibitor]

Look-ups from the results shown.
Value of CCn1cc2c(c1-c1cccc(C)c1)c(=O)n(C)c(=O)n2C under Potency: inconclusive: 15 µM [inhibitor, partial curve]
Value of COc1ccc(C(=O)N/C(=C\c2cn(S(=O)(=O)N(C)C)c3ccccc23)C(=O)N2CCN(C)CC2)cc1 under Potency: inconclusive: 26.7 µM [inhibitor, partial curve]
Value of O=C(c1ccccc1)c1ccc(Cn2cc(CCCO)nn2)cc1 under max response, negative = inhibition: inactive: 1.25%
Value of CC1(c2ccc3noc(-c4ccc(F)cc4)c3c2)OCCO1 under Potency: inconclusive: 21.2 µM [inhibitor, single point]

The list continues:

Compound | Potency | max response, negative = inhibition
O=C1/C(=C\c2ccc(-c3ccccc3[N+](=O)[O-])o2)C(c2ccccc2)=NN1c1ccccc1 | active: 3.36 µM | –
COc1ccccc1N1CC(C(=O)Nc2nnc(SCC(=O)N3CCCC3)s2)CC1=O (configuration not stated) | inconclusive: 18.9 µM [inhibitor, partial curve] | –
CC(CCc1ccccc1)NC(=O)CN(C)Cc1ccc(F)cc1 (configuration not stated) | – | inactive: -5.76%
CC(=O)c1cc2c(cc1NC(=O)c1ccc(C)cc1)OCCO2 | inconclusive: 23.8 µM [inhibitor, single point] | –
Cc1ccc(Nc2nc(N)nc(CN3CCCCCC3)n2)c(C)c1 | – | inconclusive: -34% [inhibitor]
Cc1ccc(Nc2nc(NCc3ccccc3)nc3ccsc23)c(C)c1 | – | inactive: -14.1%
CC(=O)C1=CCC(c2ccccc2)N(Cc2ccccc2)C1 (configuration not stated) | – | inactive: -1.67%
Nc1cc(Nc2ccc(Br)cc2)nc(N)n1 | – | inactive: -18.5%
COc1ccc(-n2c(=O)[nH]cc(C(=O)Nc3ccc4c(c3)OCCO4)c2=O)cc1OC | – | inactive: -3.62%
COc1cc2c(cc1OC)CN(c1nc(-c3cccnc3)nc3ccccc13)CC2 | – | inactive: 3.61%
Cc1ccc(S(=O)(=O)N2CCN(c3cc4c(cc3[N+](=O)[O-])n(C)c(=O)n4C)CC2)cc1 | – | inactive: -3.9%
Cc1cc(C)c(NC(=S)N2CCC(N(C)CC3CCCO3)CC2)c(C)c1 (configuration not stated) | – | inconclusive: -31.9% [inhibitor]
COc1cccc2cc(C(=O)NCCc3c[nH]c4ccccc34)c(=O)oc12 | active: 11.9 µM | –
Cc1noc(C(=O)Nc2c(C)nn(Cc3ccccc3)c2C)c1Cl | – | inactive: 1.64%
COc1cc2c3nnc(-c4ccc(F)cc4)c-3cn(Cc3cccc(F)c3)c2cc1OC | inconclusive: 29.9 µM [inhibitor, partial curve] | –
COc1ccccc1N1C(=O)C(Cl)=C(N2CCCC2)C1=O | – | inconclusive: -31.3% [inhibitor]
O=C(CSc1ccc(C(F)(F)F)cc1[N+](=O)[O-])Nc1ccccc1 | – | inactive: -26%
CC(C)(SC(=S)N1CCCCCC1)C(=O)O | inconclusive: 29.9 µM [inhibitor, partial curve] | –
Cc1ccc(-c2nc(C)sc2CC(=O)NCc2ccco2)cc1 | – | inactive: -9.29%
Cc1ccc(NC(=O)Cn2sc3nc(C)cc(C)c3c2=O)c(Cl)c1 | active: 1.5 µM | –
Cc1cc(NC(=O)c2cc([N+](=O)[O-])cc([N+](=O)[O-])c2)no1 | – | inactive: 5.83%
CCCc1cc(=S)n2c([nH]c3ccccc32)c1C#N | inconclusive: 23.8 µM [inhibitor, partial curve] | –
CCN1CCc2c(sc(NC(=O)Nc3ccc(Cl)c(Cl)c3)c2C(N)=O)C1 | inconclusive: 21.2 µM [inhibitor, single point] | –
Cc1ccc(-c2cc(C(=O)Nc3nn[nH]n3)c3ccccc3n2)c(C)c1 | inconclusive: 16.8 µM [inhibitor, partial curve] | –
